# Results of single-concentration screens

The values are deposited in ChEMBL (CHEMBL3988442, “University of Dundee, Small-Polar-MMV Screening Library” (2021)).

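Whole-parasite assay of Trypanosoma brucei over 72 hours; the read-out is not stated. Tested at 10 µM. Direction is inferred from retests: higher values go with stronger inhibition. Values scatter widely below zero; nearly all retest evidence comes from the higher of the two concentrations used. About 2,700 compounds were tested under these conditions; 0.51% (about 14) showed 50% or more at least once.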

Values are the deposited “Percent Effect”, in %. How 0% and 100% were set is not recorded. Most values in the screen are low, and negative values occur. Compounds were drawn at random from those tested, without regard to their results.

structure: O=C(c1ccc2c(c1)COC2)N1CCCN(Cc2cscn2)CC1
percent effect: -36.37%

structure: COc1ccc(OCC(=O)NS(=O)(=O)c2ccc(Br)s2)cc1
percent effect: -20.86%

structure: c1ccc(-n2cc(CN3CCCC3Cn3cncn3)nn2)cc1 (centres unmarked)
percent effect: 6.827%

structure: COC(=O)C(NC(=O)CCOC(C)C)c1cc(F)ccc1F (centres unmarked)
percent effect: -55.82%

structure: COCCNC(=O)CN1CCN(c2nc(C)cs2)CC1
percent effect: -57.99%

structure: COc1c(CNCc2cccc(C(=O)N(C)C)c2)c(C)nn1C
percent effect: -37.17%

structure: CCC1CCCN(Cc2nc(N)c3ccccc3n2)C1 (centres unmarked)
percent effect: -57.25%

structure: CC(=O)c1cccc(S(=O)(=O)NCc2cccnc2N(C)C)c1
percent effect: -11.02%

structure: COc1ncccc1NC(=O)NC1CCCN(c2ncccn2)C1 (centres unmarked)
percent effect: -75.47%

structure: CCOc1ncccc1NC(=O)NCC(C)O (centres unmarked)
percent effect: 1.78%

structure: CN(C)C(=O)C1CCN(Cc2csc(C(C)(C)C)n2)CC1
percent effect: -5.321%

structure: Cc1nccn1C1CCCN(C(=O)c2cccc(-n3cccc3)c2)C1 (centres unmarked)
percent effect: -12.25%

structure: CC(C)OCCN1CCN(C(C)c2nc(C3CC3)no2)CC1 (centres unmarked)
percent effect: -91.7%

structure: Cc1ccc(C(=O)NC2CCN(C(=O)Nc3ccccn3)CC2)s1
percent effect: -53.46%

structure: CC(NS(C)(=O)=O)C(=O)N1CCCN(Cc2cscn2)CC1 (centres unmarked)
percent effect: -23.07%

structure: c1ccc2oc(CN3CCOC(Cn4cccn4)C3)nc2c1 (centres unmarked)
percent effect: -74.51%

structure: COc1ncccc1CNC(=O)NC(C)Cn1cccn1 (centres unmarked)
percent effect: -11.61%

structure: CC1CN(Cc2cc(C#N)ccc2F)CCN1Cc1nccn1C (centres unmarked)
percent effect: -108.9%

structure: Cc1ccc(C(=O)N2CCN(C(=O)Cc3ccccn3)CC2)c(C)c1
percent effect: -6.926%

structure: CS(=O)(=O)Cc1ccc(CNC(=O)N2CCC(C(N)=O)C2)cc1 (centres unmarked)
percent effect: -7.089%

structure: CCn1cnnc1CNC(=O)N1CCN(Cc2ccsc2)CC1
percent effect: -45.57%

structure: NC(=O)c1csc(C(=O)N2CCCC(n3cccn3)C2)c1 (centres unmarked)
percent effect: -52.24%

structure: Cc1n[nH]c(C2CN(C(=O)c3cc4c(s3)CCCC4)CCO2)n1 (centres unmarked)
percent effect: -2.65%

structure: CCOc1ccccc1CNCC1CCN(CC(C)O)CC1 (centres unmarked)
percent effect: 31.57%

structure: Cc1cnn(CC2CN(Cc3nc4ccccc4c(=O)[nH]3)CCO2)c1 (centres unmarked)
percent effect: -38.34%

structure: CN(C(=O)NCCN1CCOCC1)C1CCN(c2ccccc2)C1=O (centres unmarked)
percent effect: -59.91%

structure: CN(C(=O)Cc1ccccc1Cl)C1CCN(c2ccccn2)CC1
percent effect: -27.72%

structure: Cc1nc(C)n(C2CCCN(C(=O)c3cncnc3C)C2)n1 (centres unmarked)
percent effect: -40.77%

structure: CC(=O)NC1CCCN(Cc2csc(-c3ncccn3)n2)C1 (centres unmarked)
percent effect: -61.73%

structure: CS(=O)(=O)NC1CCCN(C(=O)NCc2ccccc2Cl)C1 (centres unmarked)
percent effect: -60.95%

structure: Cc1cncc(C(=O)NCCSCc2cccs2)c1
percent effect: -9.161%

structure: CCn1nc2c(cc1=O)CN(Cc1nc(-c3cccs3)no1)CC2
percent effect: -5.86%

structure: Cc1nc(C)n(C2CCCN(C(=O)c3sccc3C)C2)n1 (centres unmarked)
percent effect: -10.71%

structure: c1csc(-c2nc(CN3CCCCC3Cn3cncn3)cs2)c1 (centres unmarked)
percent effect: 10.19%

structure: Cc1cnc(CN(C)C2CCN(Cc3nc4ccccc4o3)C2)o1 (centres unmarked)
percent effect: -23.41%

structure: Cc1nn(C)c(Cl)c1C1CCCN1C(=O)CCNc1ncccn1 (centres unmarked)
percent effect: -42.42%

structure: Cc1ccsc1C(=O)NCc1ccnc(N2CCN(C)CC2)c1
percent effect: -72.18%

structure: Cc1ccc(CNCC2CCCN2c2cccnn2)s1 (centres unmarked)
percent effect: -24.77%

structure: c1ccc(CCCN2CCOC(Cn3cccn3)C2)cc1 (centres unmarked)
percent effect: -53.65%

structure: Cn1ccnc1CN1CCN(CC(O)c2ccc(F)cc2)CC1 (centres unmarked)
percent effect: -45.96%

structure: CC(C)c1ccc(OCCNC(=O)CN2CCN(C)CC2C)cc1 (centres unmarked)
percent effect: -53.25%

structure: Cc1nc(CN(C)C2CCN(Cc3cccc(F)c3)C2)no1 (centres unmarked)
percent effect: -20.31%

structure: CCN(CC)C(=O)c1ccc(CNc2cncc(-n3cccn3)n2)cc1
percent effect: -26.25%